The test system of this experiment is L1210 leukemia ip in BDF1 mice, survival T/C. Put plainly: NCI In Vivo Anticancer Drug Screen. Data for tumor model L1210 Leukemia (intraperitoneal) in B6D2F1 (BDF1) mice. Particulars: T/C endpoint: mean survival time, higher T/C = longer survival.
Setting [1] is: dose: 100.0 mg/kg/injection, schedule: Q01DX009 (ip), vehicle: saline with Tween-80.
Setting [2] is: dose: 100.0 mg/kg/injection, schedule: Q01DX005 (ip), vehicle: saline.
Setting [3] is: dose: 200.0 mg/kg/injection, schedule: Q01DX005 (ip), vehicle: saline.
Setting [4] is: dose: 400.0 mg/kg/injection, schedule: Q01DX001 (ip), vehicle: saline.
[5] abbreviates: dose: 200.0 mg/kg/injection, schedule: Q01DX001 (ip), vehicle: saline.
The mark [6] stands for this setting: dose: 100.0 mg/kg/injection, schedule: Q04DX002 (ip), vehicle: saline with Tween-80.
Setting [7] is: dose: 200.0 mg/kg/injection, schedule: Q04DX002 (ip), vehicle: saline with Tween-80.
Setting [8] is: dose: 400.0 mg/kg/injection, schedule: Q04DX002 (ip), vehicle: saline with Tween-80.
[9] abbreviates: dose: 200.0 mg/kg/injection, schedule: Q04DX003 (ip), vehicle: saline with Tween-80.
Setting [10] is: dose: 400.0 mg/kg/injection, schedule: Q04DX003 (ip), vehicle: saline with Tween-80.
Where [11] appears, read: dose: 100.0 mg/kg/injection, schedule: Q04DX003 (ip), vehicle: Klucel (hydroxypropylcellulose) (HPC).
Setting [12] is: dose: 200.0 mg/kg/injection, schedule: Q04DX003 (ip), vehicle: Klucel (hydroxypropylcellulose) (HPC).
Where [13] appears, read: dose: 400.0 mg/kg/injection, schedule: Q04DX003 (ip), vehicle: Klucel (hydroxypropylcellulose) (HPC).
The mark [14] stands for this setting: dose: 100.0 mg/kg/injection, schedule: Q04DX003 (ip), vehicle: saline with Tween-80.

The list is a part of this screen's results and no random one: it is rich in T/C values a quarter to a half above the control, in often repeated tests (any T/C) and in doses without a T/C. Other doses and runs of a compound stand elsewhere. T/C: endpoint of the treated group in % of that of the vehicle group. Some doses have a count of surviving animals in place of a T/C: the source files T/C as zero there, which appears to mark a toxic dose or a test without result, not a measured value. Some survivor counts are full or nearly so, which does not show that the dose was tolerated: survival well below the control is almost never listed, so the zero probably covers shortened survival too. Counts of survivors are from the toxicity check (mostly the fifth day) where no day follows; animals may have died later. Schedules are NCI's codes, taken here to give the interval after Q, in days (D) or hours (H), and the number of doses after X. Some entries were tested several times; the values are given in rising order. Some schedules carry Z or #; the key to these is not given. For survival time, this PubChem deposit counts one and a half times the control or more as active, and values a quarter to a half above the control carry no call in these data; other NCI protocols may use other cut-offs. Some T/C values carry the count of animals alive at the toxicity check (mostly the fifth day); where none is given, no animal had died by that day.

In the case of `O=[N+]([O-])c1ccc(C(O)Nc2nccs2)o1` (stereo not given), the survivor count under setting [1] is reported as 3 of 6.

On to `Cc1cccc(C)c1NC(=O)N(CCCl)N=O`, for which the T/C by setting is: (dose: 8.0 mg/kg/injection, schedule: Q01DX001 (ip), vehicle: carboxymethylcellulose (CMC)) 136 % of control; (dose: 8.6 mg/kg/injection, schedule: Q01DX Z (oral), vehicle: carboxymethylcellulose (CMC)) 144 % of control; (dose: 30.0 mg/kg/injection, schedule: Q01DX Z (oral), vehicle: carboxymethylcellulose (CMC)) 140 % of control; (dose: 45.0 mg/kg/injection, schedule: Q01DX Z (oral), vehicle: carboxymethylcellulose (CMC)) 144 % of control [5 of 6 alive]. Besides, the survivor count is 1 of 6 (dose: 70.0 mg/kg/injection, schedule: Q01DX Z (oral), vehicle: carboxymethylcellulose (CMC)); 0 of 6 (dose: 250.0 mg/kg/injection, schedule: Q01DX001 (ip), vehicle: carboxymethylcellulose (CMC)); 0 of 6 (dose: 375.0 mg/kg/injection, schedule: Q01DX001 (ip), vehicle: carboxymethylcellulose (CMC)); 0 of 6 (dose: 500.0 mg/kg/injection, schedule: Q01DX001 (ip), vehicle: carboxymethylcellulose (CMC)).

With `N#CCC1=Cc2ccccc2CC1`, the survivor count reads like this: under setting [2], 2 of 6; under setting [3], 0 of 6; (dose: 400.0 mg/kg/injection, schedule: Q01DX005 (ip), vehicle: saline) 0 of 6.

For `C1CCC(C2CCC(C3CCCCC3)CC2)CC1` (stereo not given), the survivor count under setting [4] is recorded as 2 of 4.

With `CCCCCCCC(=O)O[C@H]1[C@H]2[C@@H](CC1(C)C)C(=O)[C@]13O[C@H]1C(=O)[C@]1(CO1)[C@]23C`, the survivor count (dose: 40.0 mg/kg/injection, schedule: Q04DX003 (ip), vehicle: saline with Tween-80) was 3 of 6.

Turning to `Nc1nc([Se]Cc2ccc([N+](=O)[O-])cc2)c2ncn(C3OC(CO)C(O)C3O)c2n1` (stereo not given), the T/C under setting [2] is 147 % of control [4 of 6 alive]. Further, under setting [3], the survivor count is given as 2 of 6.

Consider `CCCC(CN(CCN(C)C)Cc1ccccc1)c1ccc(OC)cc1` (stereo not given), for which the survivor count under setting [5] is recorded as 1 of 6 and the survivor count under setting [4] was 0 of 6.

For the compound `CCCCCCCN=C(N)CSSCC(N)=NCCCCCCC`, the survivor count runs as follows: (dose: 12.5 mg/kg/injection, schedule: Q04DX002 (ip), vehicle: saline with Tween-80) 0 of 3; (dose: 25.0 mg/kg/injection, schedule: Q04DX002 (ip), vehicle: saline with Tween-80) 0 of 3; under setting [6], 0 of 3; under setting [7], 0 of 3; under setting [8], 0 of 3.

Turning to `O=C(C[n+]1c(Cl)ccc2ccccc21)c1ccccc1`, where the note is “dose: 300.0 mg/kg/injection, schedule: Q01DX001 (ip), vehicle: other”, the survivor count is given as 1 of 6.

In the case of `Nc1nc2ncc(CNc3ccc(C(=O)NC(CCC(=O)O)C(=O)O)cc3)nc2c(=O)[nH]1` (stereo not given), the survivor count reads like this: under setting [7], 1 of 3; under setting [8], 0 of 6 and 1 of 3.

Regarding `CC(C)C1=CC2=CCC3C(C)(C#N)CCCC3(C)C2CC1CC#N` (stereo not given), the survivor count under setting [9] was 6 of 6.

Regarding `Cc1c(-c2ccccc2Br)nc2ccccc2c1C(=O)O`, the survivor count under setting [4] is 3 of 6.

In the case of `CCCCCCCCC(=O)N(C)OC`, under setting [10], the survivor count is reported as 1 of 6.

Take `Oc1ccc(N=Cc2c(O)ccc3ccccc23)cc1`: the survivor count (dose: 100.0 mg/kg/injection, schedule: Q01DX001 (ip), vehicle: other) is listed as 6 of 6.

In the case of `CC(=O)Nc1ccc(/C=C/c2ccc3ccccc3[n+]2C)cc1`, the survivor count under setting [1] is reported as 0 of 6, the survivor count under setting [11] is listed as 4 of 6, the survivor count under setting [12] is recorded as 0 of 6 and the survivor count under setting [13] is recorded as 0 of 6.

As to `Nc1c(Cl)c(Cl)c(Cl)c(Cl)c1C(=O)O`, the survivor count (dose: 300.0 mg/kg/injection, schedule: Q04DX003 (ip), vehicle: saline) is listed as 1 of 6.

`CCOP(=O)(OCC)OCc1ccccc1`: the survivor count (dose: 25.0 mg/kg/injection, schedule: Q04DX003 (ip), vehicle: saline with Tween-80) is recorded as 1 of 6; the survivor count (dose: 50.0 mg/kg/injection, schedule: Q04DX003 (ip), vehicle: saline with Tween-80) was 0 of 6; the survivor count under setting [14] is reported as 0 of 6; the survivor count under setting [9] is on record as 0 of 6; the survivor count under setting [10] is given as 0 of 6.

Turning to `C[N+](C)(C)CCOc1ccc(Cl)cc1`, the survivor count reads like this: under setting [11], 3 of 6; under setting [12], 0 of 6; under setting [13], 0 of 6.

For the compound `CN(C)C(C)(C)CCCNc1ccnc2cc(Cl)ccc12`, the survivor count (dose: 300.0 mg/kg/injection, schedule: Q01DX001 (ip), vehicle: carboxymethylcellulose (CMC)) is 0 of 6.

For `O=C(NNC(=O)OCC(Cl)(Cl)Cl)OCC(Cl)(Cl)Cl`, under setting [6], the survivor count was 2 of 3.

Take `COc1ccc(C2CCCCCC2OS(C)(=O)=O)c(OC)c1OC` (stereo not given): where the note is “dose: 400.0 mg/kg/injection, schedule: Q01DX001 (ip), vehicle: carboxymethylcellulose (CMC)”, the survivor count is given as 0 of 4.

Regarding `CCOC(=O)NCC(C)(CCN1CCOCC1)c1cccc2ccccc12` (stereo not given), the survivor count (dose: 200.0 mg/kg/injection, schedule: Q01DX009 (ip), vehicle: Klucel (hydroxypropylcellulose) (HPC)) is 0 of 6 and the survivor count (dose: 400.0 mg/kg/injection, schedule: Q01DX009 (ip), vehicle: Klucel (hydroxypropylcellulose) (HPC)) is given as 0 of 6.

Consider `CCCCN(CCCC)CC(O)c1ccccc1` (stereo not given), for which the survivor count (dose: 100.0 mg/kg/injection, schedule: Q01DX009 (ip), vehicle: saline) was 1 of 3.

Turning to `COP(=O)(OC)OCc1cnc(SC)nc1N`, the survivor count runs as follows: (dose: 200.0 mg/kg/injection, schedule: Q04DX003 (ip), vehicle: saline) 3 of 6; (dose: 400.0 mg/kg/injection, schedule: Q04DX003 (ip), vehicle: saline) 1 of 6.

Regarding `CCCCCCCCCCCC(=O)[O][Sn]([CH2]C)([CH2]C)[O]C(=O)CCCCCCCCCCC`, the survivor count is 0 of 6 (dose: 35.0 mg/kg/injection, schedule: Q01DX009 (ip), vehicle: saline with Tween-80); 3 of 6 (dose: 50.0 mg/kg/injection, schedule: Q01DX001 (ip), vehicle: saline); 2 of 6 (dose: 55.0 mg/kg/injection, schedule: Q04DX003 (ip), vehicle: acetone); 0 of 6 (dose: 80.0 mg/kg/injection, schedule: Q04DX003 (ip), vehicle: acetone); 2 of 6 (dose: 100.0 mg/kg/injection, schedule: Q01DX001 (ip), vehicle: saline); 0 of 6 under setting [5]. Also, the survivor count under setting [4] was 0 of 6.

Turning to `C=CCOC(=O)Nc1ccccc1`, the survivor count (dose: 400.0 mg/kg/injection, schedule: Q01DX001 (ip), vehicle: Klucel (hydroxypropylcellulose) (HPC)) was 3 of 3.

As for `CCCCCCCCCCCCCCCCNS(=O)(=O)c1ccc2sc(SC)nc2c1`, under setting [14], the survivor count is given as 6 of 6.

With `CCOC(=O)NO`, the T/C was 140 % of control (dose: 200.0 mg/kg/injection, schedule: Q01DX Z (ip), vehicle: carboxymethylcellulose (CMC)); 128 % of control (dose: 270.0 mg/kg/injection, schedule: Q01DX009 (ip), vehicle: saline); 138 % of control (dose: 400.0 mg/kg/injection, schedule: Q01DX009 (ip), vehicle: saline); 140 % of control (dose: 400.0 mg/kg/injection, schedule: Q01DX Z (ip), vehicle: carboxymethylcellulose (CMC)); 128 % of control (dose: 900.0 mg/kg/injection, schedule: Q01DX009 (ip), vehicle: saline).

These data come from PubChem BioAssay AID248 (DTP/NCI, 2004).
